Experimental data from PubChem BioAssay AID504444 (National Center for Advancing Translational Sciences (NCATS), 2011).
In all, about 360,000 compounds went through this assay and about 7,500 (2.1%) were called active. Inconclusive results, whose numbers are uncertain, are shown with a selection of clear calls. Calls come from the whole dose curve; as a rule, active = well fitted inhibition curve with a large enough effect; inconclusive = small, poorly fitted or top-dose-only effect, or effect the other way; inactive = flat fitted curve, though single readings scatter. A potency beside an inconclusive call is a rough fit, not a confirmed value.

Test: Nrf2 qHTS screen for inhibitors; note: nearly all actives have a fitted effect of over 60% in size
Settings: A549 ARE-Fluc reporter, luciferase luminescence, 18-24 h; series mostly up to 46 µM
Method in brief: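 Nrf2 function is reported as luminescence of an ARE-controlled luciferase in A549 cells. Compounds were tested at several concentrations, and a CellTiter-Fluor read on the same wells flagged cytotoxicity.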
Potency is the fitted concentration of half-maximal effect.

| Compound | Potency |
| --- | --- |
| CCc1ccc(CNC(=O)c2ccc3c(c2)NC(=O)C(N2CCOCC2)S3)cc1 (configuration not stated) | inconclusive: 16.4 µM [falling, single point] |
| COc1cccc(CCN2CCC(CNS(=O)(=O)c3cc(-c4cc(C)no4)ccc3C)CC2)c1 | inactive |
| CCCCCOCC(O)CCC(=O)NN (configuration not stated) | inconclusive: 11.6 µM [activator, partial curve, poor fit] |
| CCN(CC)c1ccc2c(-c3ccc(S(=O)(=O)O)cc3S(=O)(=O)[O-])c3ccc(=[N+](CC)CC)cc-3oc2c1 | inconclusive: 18.4 µM [falling, single point] |
| Cc1occc1C(=O)Nc1cccc(C(=O)O)c1 | inconclusive: 2.59 µM [activator, partial curve, poor fit] |
| COc1ccc(NS(=O)(=O)c2ccc3c(c2)C(C(C)C)C(=O)N3)cc1 (configuration not stated) | inconclusive: 41.1 µM [falling, single point] |
| O=C(Nc1ccccc1Cl)c1csc(-c2cccnc2)n1 | inconclusive: 7.31 µM [activator, partial curve] |
| O=C(NCc1ccc(Cl)cc1)c1csc(-c2cccnc2)n1 | inconclusive: 29.1 µM [falling, single point] |
| COc1ccc(C(=O)c2ccc(Br)cc2)cc1 | inconclusive: 16.4 µM [activator, single point] |
| CN(CCc1ccccc1)C(=O)c1ccc(NC(=O)Cc2ccc(NC(=O)C3CCCN(C(=O)C4CC4)C3)cc2)cc1 (configuration not stated) | inconclusive: 16.4 µM [falling, single point] |
| Cc1ccc(S(=O)(=O)N2[C@@H](c3ccc(C(C)(C)C)cc3)C(C(=O)O)=CC[C@H]2c2ccc(Cl)cc2)cc1 | active: 18.4 µM |
| C/C(=N\NC(=O)c1cccc(S(=O)(=O)Nc2ccccc2Cl)c1)c1ccco1 | inconclusive: 0.58 µM [falling, full curve, poor fit] |
| N#CC1=C(N)OC2=C(C(=O)CCC2)C1Cc1ccccc1 (configuration not stated) | inconclusive: 6.51 µM [activator, single point] |
| COC(=O)c1sccc1S(=O)(=O)N(CC(=O)NCc1ccccc1)c1ccccc1 | inactive |
| COc1cc2cc(-c3ccc(O)cc3O)nc(C)c2cc1OC | inconclusive: 29.1 µM [falling, single point] |
| COc1ccccc1/C=C/C(=O)OCC(=O)N1c2ccccc2CC1C (configuration not stated) | inactive |
| CN(CC(=O)Nc1c(Cl)cccc1Cl)C(=O)c1ccc2nc[nH]c2c1 | inactive |
| COc1ccc(N=Cc2nc(-c3ccco3)oc2O)cc1 | inconclusive: 14.6 µM [activator, partial curve, poor fit] |
| COCC1CCCCN1C(=O)C1CCN(c2nc(-c3ccccc3)nc3c2CCC3)CC1 (configuration not stated) | inconclusive: 8.2 µM [falling, partial curve, poor fit] |
| COCCn1c(SCC(=O)/C=C2\N(C)c3ccccc3C2(C)C)nnc1-c1ccncc1 | active: 23.1 µM |
| O=C(/C=C/c1cccc([N+](=O)[O-])c1)N1CCN(C(=O)c2ccco2)CC1 | inconclusive: 29.1 µM [falling, single point] |

As a working copy, part of the list above:

| Compound | Potency |
| --- | --- |
| Cc1occc1C(=O)Nc1cccc(C(=O)O)c1 | inconclusive: 2.59 µM [activator, partial curve, poor fit] |
| COc1ccc(NS(=O)(=O)c2ccc3c(c2)C(C(C)C)C(=O)N3)cc1 (configuration not stated) | inconclusive: 41.1 µM [falling, single point] |
| O=C(Nc1ccccc1Cl)c1csc(-c2cccnc2)n1 | inconclusive: 7.31 µM [activator, partial curve] |
| O=C(NCc1ccc(Cl)cc1)c1csc(-c2cccnc2)n1 | inconclusive: 29.1 µM [falling, single point] |
| COc1ccc(C(=O)c2ccc(Br)cc2)cc1 | inconclusive: 16.4 µM [activator, single point] |
| CN(CCc1ccccc1)C(=O)c1ccc(NC(=O)Cc2ccc(NC(=O)C3CCCN(C(=O)C4CC4)C3)cc2)cc1 (configuration not stated) | inconclusive: 16.4 µM [falling, single point] |
| Cc1ccc(S(=O)(=O)N2[C@@H](c3ccc(C(C)(C)C)cc3)C(C(=O)O)=CC[C@H]2c2ccc(Cl)cc2)cc1 | active: 18.4 µM |
| C/C(=N\NC(=O)c1cccc(S(=O)(=O)Nc2ccccc2Cl)c1)c1ccco1 | inconclusive: 0.58 µM [falling, full curve, poor fit] |

Following part

| Compound | Potency |
| --- | --- |
| O=C(c1cc2c(s1)-c1ccccc1OC2)N1CCN(c2ccccn2)CC1 | inconclusive: 32.6 µM [falling, single point] |
| O=C(NCc1cccnc1)C(=O)Nc1nc2ccccc2s1 | inconclusive: 16.4 µM [activator, single point] |
| CCn1c(=O)c2cc(C(=O)N(CCCOC(C)C)Cc3ccco3)sc2c2ccccc21 | inconclusive: 4.11 µM [falling, partial curve] |
| CCOC(=O)C1CCN(S(=O)(=O)c2cccc(-c3cn4cccnc4n3)c2)CC1 | inconclusive: 29.1 µM [falling, single point] |
| Cc1ccc(C)c(S(=O)(=O)NCc2ccc(C(=O)N3CCN(C)CC3)cc2)c1 | inactive |
| COc1cccc(C(=O)C2CCCN(CC3=Cc4cc(OC)ccc4OC3)C2)c1 (configuration not stated) | inconclusive: 25.9 µM [activator, single point] |
| COc1ccc([C@H]2CC(=O)C=C(c3cc4ccccc4s3)C2)cc1 | inconclusive: 23.1 µM [activator, single point] |
| O=C(c1csc2c1CCCC2)N1CCN(c2ncccn2)CC1 | inactive |
| COC(=O)c1ccccc1NC(=O)c1ccc(-c2ccccc2F)o1 | inconclusive: 20.6 µM [activator, single point] |
| O=C(c1ccccc1)c1coc2c1C(=O)c1ccccc1C2=O | inconclusive: 29.1 µM [falling, single point] |
| COc1ccc(C(=O)COC(=O)CCC(=O)Nc2ccc(C(C)=O)cc2)cc1 | inconclusive: 0.0291 µM [activator, full curve, poor fit] |
| c1ccc(-c2noc(CC3CCCCC3)n2)cc1 | inconclusive: 29.1 µM [activator, single point] |
| CC(=O)c1cccc(NC(=O)Cn2c(=O)c(CNc3ccc(C)cc3)cc3cc4c(cc32)OCCO4)c1 | inactive |
| O=C(CCC1CCCN(C(=O)Cn2cnnn2)C1)NCc1ccc(F)c(F)c1 (configuration not stated) | inconclusive: 3.26 µM [activator, single point] |
| CC(=O)Nc1ccc(Nc2nc(-c3ccccc3)nc3ccccc23)cc1 | inconclusive: 20.6 µM [falling, partial curve, poor fit] |
| Fc1cccc(/C=N/Nc2nccnc2Cl)c1 | inconclusive: 0.651 µM [activator, partial curve] |
| CN(c1ccc(OCC(=O)Nc2ccc(S(N)(=O)=O)cc2)cc1)S(=O)(=O)c1ccc(F)cc1 | inconclusive: 16.4 µM [falling, single point] |
| Cc1ccc2nc(-c3ccc(NC(=O)COC(=O)c4ccc([N+](=O)[O-])o4)cc3)sc2c1 | inconclusive: 0.82 µM [activator, full curve, poor fit] |
| CCOc1cccc2sc(N3CCN(C(=O)c4ccc5ncsc5c4)CC3)nc12 | inactive |
| Cn1nnnc1SCC(=O)NC1CCCC1 | inconclusive: 13 µM [activator, single point] |
| COc1ccc(N/N=C(/C(N)=O)C2=NC(C)(C)Cc3ccccc32)cc1 | inconclusive: 23.1 µM [falling, single point] |
